# Laboratory results as given in PubChem BioAssay AID504834 (National Center for Advancing Translational Sciences (NCATS), 2011).
# Among all 320,000 compounds or so, about 22,000 (6.9%) were called active. This list was built around the results that the source calls inconclusive (neither active nor inactive); the mix of calls is not that of the screen. Calls come from the whole dose curve; as a rule, active = well fitted inhibition curve with a large enough effect; inconclusive = small, poorly fitted or top-dose-only effect, or another doubt; inactive = no such curve, though single readings can be large or run the other way. Where the call is inconclusive, the potency comes from a doubtful curve fit.
# Experiment: Primary qHTS for delayed death inhibitors of the malarial parasite plastid, 96 hour incubation
# Settings: P. falciparum luciferase reporter growth; series mostly up to 28.7 µM; activity change, negative = inhibition: at the top concentration
# Summary of the method: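 96 h incubation, 37 C, 5% CO2, of luciferase-reporter P. falciparum-infected RBCs (2% hematocrit, 0.05% parasitemia final) with test compounds; endpoint luminescence.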
# % is set by controls: 0 for no effect and ±100 for the full control effect; potency is the fitted concentration of half-maximal effect.
Structure (SMILES),Potency,"activity change, negative = inhibition"
OCCN1CCN(CCCc2c3c(cc4c2CCC4)CCC3)CC1,active: 11.7 µM,–
Cc1cc(C)c2c(N)c(C(=O)NNC(=O)c3ccccc3)sc2n1,"inconclusive: 11.7 µM [inhibitor, single point]",–
O=c1ccc(-c2nc3ccccc3n2Cc2ccc(Cl)cc2)c[nH]1,active: 9.28 µM,–
Clc1ccccc1-c1nn2c(-c3ccncc3)nnc2s1,"inconclusive: 18.5 µM [inhibitor, single point]",–
C=C(C)Cn1c(=O)c2c(nc3n2CCCN3Cc2ccccc2)n(C)c1=O,"inconclusive: 9.28 µM [inhibitor, partial curve]",–
CCOC(=O)c1c(C)n(CCOc2ccccc2)c2ccc(O)cc12,"inconclusive: 0.185 µM [inhibitor, partial curve, poor fit]",–
CCOc1cc(C(=O)Nc2cc(C)ccc2C)ccc1OCC(=O)N1CCCCC1,"inconclusive: 18.5 µM [inhibitor, single point]",–
CC(C)Sc1nc(NCc2ccco2)c2c3c(sc2n1)COC(C)(C)C3,"inconclusive: 11.7 µM [inhibitor, single point]",–
Cc1ccc(C(=O)N/C(=C\c2ccco2)C(=O)NCCCn2ccnc2)cc1,active: 9.28 µM,–
COc1ccc(-c2cc(C(=O)N(C)Cc3ccccc3)no2)cc1OC,"inconclusive: 10.4 µM [inhibitor, partial curve, poor fit]",–
CN(C)c1ccc(/C=N/N=C(N)N)cc1[N+](=O)[O-],–,inactive: 281%
O=C(c1ccc(C(F)(F)F)cc1)C1CCCN(C(=O)c2cnccn2)C1 (centres undefined),"inconclusive: 11.7 µM [inhibitor, partial curve, poor fit]",–
Cc1ccc(N=Nc2ccc(O)c3ncccc23)cc1,"inconclusive: 2.08 µM [inhibitor, partial curve, poor fit]",–
O=C(OCc1ccc([N+](=O)[O-])cc1)C1CCN(S(=O)(=O)c2ccccc2)CC1,–,inactive: 35.2%
O=C(COC(=O)Cn1cnc2ccccc21)NCCc1ccccc1,"inconclusive: 5.22 µM [inhibitor, single point]",–
CCC(CC)c1nn2c(N)c(/C=C3\C=Nc4ccccc43)c(=O)nc2s1,"inconclusive: 3.7 µM [inhibitor, partial curve, poor fit]",–
CCOc1ccc2[nH]cc(C(=O)NCc3ccc(F)cc3)c(=O)c2c1,–,inactive: 0%
Cc1nn(CC(=O)NCc2cccc(F)c2)c(=O)c2cccn12,"inconclusive: 13.1 µM [inhibitor, single point]",–
CC1CC(C)CN(CCCNC(=O)c2c(O)nc3ccccn3c2=O)C1 (centres undefined),"inconclusive: 2.62 µM [inhibitor, partial curve]",–
CCCNc1nc2c(c(=O)n(C)c(=O)n2C)n1Cc1cccc(C)c1,–,inactive: 12.3% [at 5.75 µM]
O=C(NCc1ccccn1)Nc1ccc(Cl)c(Cl)c1,–,inactive: 37.9%
CC1(C)CC(=O)C2=C(C1)N=C1c3ccccc3C(=O)C1C2c1ccc(Cl)cc1 (centres undefined),"inconclusive: 3.29 µM [inhibitor, partial curve]",–

# 3 compounds already listed, ordered by count of non-hydrogen atoms, largest number first:
Structure (SMILES),Potency,"activity change, negative = inhibition"
O=C(c1ccc(C(F)(F)F)cc1)C1CCCN(C(=O)c2cnccn2)C1 (centres undefined),"inconclusive: 11.7 µM [inhibitor, partial curve, poor fit]",–
OCCN1CCN(CCCc2c3c(cc4c2CCC4)CCC3)CC1,active: 11.7 µM,–
O=C(NCc1ccccn1)Nc1ccc(Cl)c(Cl)c1,–,inactive: 37.9%

# Later entries:

Structure (SMILES),Potency,"activity change, negative = inhibition"
Cc1c(C(C)(C)O)[nH]c2cc(C(F)(F)F)ccc12,–,inactive: -14.6%
O=C(CCNC(=O)N1CC(=O)Nc2ccccc21)NCc1ccc(F)cc1,"inconclusive: 20.8 µM [inhibitor, partial curve, poor fit]",–
Cc1ccc(Nc2nnc(SCC(=O)c3ccc(O)cc3O)s2)cc1,active: 2.08 µM,–
O=C1/C(=C/Nc2cccc([N+](=O)[O-])c2)CCc2ccccc21,"inconclusive: 2.94 µM [inhibitor, partial curve, poor fit]",–
CS(=O)(=O)N1CCN(C(=O)NC2CCCCC2)CC1,"inconclusive: 10.4 µM [inhibitor, single point]",–
CCN(C(=O)CN1CCCCC1C)c1c(N)n(Cc2ccccc2)c(=O)[nH]c1=O (centres undefined),–,inactive: -19.9%
Cc1ccc(-n2nnnc2Sc2ccc(S(=O)(=O)NCCN(C)C)cc2[N+](=O)[O-])cc1,"inconclusive: 11.7 µM [inhibitor, single point]",–
Cc1nc2ccc(-c3nc4ccccc4[nH]3)cc2[nH]1,–,inactive: 300%
COc1ccc([C@@H]2[C@@H]3C(=O)N(C(C)(C)C)C(=O)[C@@H]3[C@]3(Cc4ccc(Cl)cc4)C(=O)N(c4cccc(F)c4)C(=O)N23)cc1,active: 9.28 µM,–
Oc1ccc(/C=N/Nc2ccc(Cl)nn2)c(O)c1O,"inconclusive: 13.1 µM [inhibitor, single point]",–
C=CCn1c(O)c(C(CC)=NCc2ccc3c(c2)OCO3)c(=O)[nH]c1=O,"inconclusive: 13.1 µM [inhibitor, single point]",–
CCN(C(=O)Cc1c(C(=O)O)[nH]c2ccccc12)c1ccc(OC)cc1,–,inactive: -5.78%
CC(Nc1ccccc1N1CCCCC1)C(=O)N1CCc2ccccc21 (centres undefined),"inconclusive: 3.29 µM [inhibitor, partial curve, poor fit]",–
COC(=O)CSc1nnc(CNC(=O)c2ccc(S(=O)(=O)N3CCCCC3)cc2)n1C,active: 1.47 µM,–
CCCCCn1c(=NC(=O)c2ccco2)c(C(=O)OCC)cc2c(=O)n3ccccc3nc21,active: 14.7 µM,–
Cc1ccc(Cl)cc1NC(=O)NCc1cccnc1,"inconclusive: 10.4 µM [inhibitor, single point]",–
CCOC(=O)C1C(=O)C=C(c2ccc(C)cc2)CC1c1ccc([N+](=O)[O-])cc1 (centres undefined),active: 9.28 µM,–
Cc1nnc2n(Cc3ccccc3)c(=O)c3c4c(sc3n12)COC(C)(C)C4,"inconclusive: 18.5 µM [inhibitor, single point]",–
CCOCc1nnc(NS(C)(=O)=O)s1,"inconclusive: 4.65 µM [inhibitor, partial curve]",–
CCCCCCn1c(O)c(C=Nc2c(C)n(C)n(-c3ccccc3)c2=O)c(=O)[nH]c1=O,"inconclusive: 8.28 µM [inhibitor, partial curve]",–
CCCC(C(=O)NC(C)(C)CC)N(Cc1ccco1)C(=O)CNS(=O)(=O)c1ccccc1 (centres undefined),"inconclusive: 2.62 µM [inhibitor, partial curve, poor fit]",–
Cc1ccc(Oc2cc(NC(=O)CCCn3nc([N+](=O)[O-])cc3C)cc([N+](=O)[O-])c2)cc1,–,inactive: -26.9%
